# According to the supplement of paper PMC8728848:
# Some of the results follow.
# Experiments:
# Test in all cases: glycan array binding signal (z-score within array); higher = stronger binding
# Settings in all cases: glycan notation: IUPAC condensed, linker removed
# [1] = tested on: Gal(b1-4)GlcNAc(b1-3)Gal(b1-4)Glc
# Outline: (§1)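 From the Consortium for Functional Glycomics database, 3228 arrays were curated, keeping only those whose protein sequence was available. Binding is given as a within-array Z-score averaged across arrays sharing a protein sequence and across linkers. Negative Z-scores can be read as non-binding.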
# [2] = tested on: Gal(b1-4)GlcNAc(b1-3)Gal(b1-4)[Fuc(a1-3)]GlcNAc(b1-3)Gal(b1-4)[Fuc(a1-3)]GlcNAc
# Outline: as §1
# [3] = tested on: Gal(b1-4)GlcNAc(b1-3)GalNAc
# Outline: as §1
# [4] = tested on: Gal(b1-4)GlcNAc(b1-3)[Fuc(a1-3)GlcNAc(b1-6)]Gal(b1-4)Glc
# Outline: as §1
# [5] = tested on: Gal(b1-4)GlcNAc(b1-3)[Gal(b1-4)GlcNAc(b1-6)]Gal(b1-4)GlcNAc
# Outline: as §1
# [6] = tested on: Gal(b1-4)GlcNAc(b1-3)[GlcNAc(b1-6)]Gal(b1-4)GlcNAc
# Outline: as §1
# [7] = tested on: Gal(b1-4)GlcNAc(b1-6)Gal(b1-4)GlcNAc
# Outline: as §1
# [8] = tested on: Gal(b1-4)GlcNAc(b1-6)GalNAc
# Outline: as §1
# [9] = tested on: Gal(b1-4)GlcNAc(b1-6)[Gal(b1-3)]GalNAc
# Outline: as §1
# [10] = tested on: Gal(b1-4)GlcNAc(b1-6)[Gal(b1-4)GlcNAc(b1-3)]GalNAc
# Outline: as §1
# Gal(b1-4)GlcNAc6P = tested on: Gal(b1-4)GlcNAc6P
# Outline: as §1
# Gal(b1-4)GlcNAc = tested on: Gal(b1-4)GlcNAc
# Outline: as §1
# Gal(b1-4)Glc = tested on: Gal(b1-4)Glc
# Outline: as §1
# Gal(b1-6)Gal = tested on: Gal(b1-6)Gal
# Outline: as §1
# Gal3S(b1-3)GalNAc = tested on: Gal3S(b1-3)GalNAc
# Outline: as §1
# Gal3S(b1-3)GlcNAc = tested on: Gal3S(b1-3)GlcNAc
# Outline: as §1
# [11] = tested on: Gal3S(b1-3)[Fuc(a1-4)]GlcNAc
# Outline: as §1
# Gal3S(b1-4)Glc6S = tested on: Gal3S(b1-4)Glc6S
# Outline: as §1
# Gal3S(b1-4)GlcNAc = tested on: Gal3S(b1-4)GlcNAc
# Outline: as §1
# Gal3S(b1-4)Glc = tested on: Gal3S(b1-4)Glc
# Outline: as §1
# [12] = tested on: Gal3S(b1-4)[Fuc(a1-3)]Glc6S
# Outline: as §1
# [13] = tested on: Gal3S(b1-4)[Fuc(a1-3)]GlcNAc6S
# Outline: as §1
# [14] = tested on: Gal3S(b1-4)[Fuc(a1-3)]GlcNAc
# Outline: as §1
# Gal3S4S(b1-4)GlcNAc = tested on: Gal3S4S(b1-4)GlcNAc
# Outline: as §1
# Gal3S6S(b1-4)GlcNAc6S = tested on: Gal3S6S(b1-4)GlcNAc6S
# Outline: as §1
# Gal3S6S(b1-4)GlcNAc = tested on: Gal3S6S(b1-4)GlcNAc
# Outline: as §1
# Gal4S(b1-4)GlcNAc = tested on: Gal4S(b1-4)GlcNAc
# Outline: as §1
# Gal4S6S(b1-4)GlcNAc = tested on: Gal4S6S(b1-4)GlcNAc
# Outline: as §1
# Gal6P(b1-4)GlcNAc = tested on: Gal6P(b1-4)GlcNAc
# Outline: as §1
# Gal6S(b1-3)GlcNAc6S = tested on: Gal6S(b1-3)GlcNAc6S
# Outline: as §1
# Gal6S(b1-3)GlcNAc = tested on: Gal6S(b1-3)GlcNAc
# Outline: as §1
# Gal6S(b1-4)Glc6S = tested on: Gal6S(b1-4)Glc6S
# Outline: as §1
substance,measurement,setting,value
MpAFP RI GFP (Marinomonas primoryensis),glycan array binding signal (z-score),[1],-0.581
same,glycan array binding signal (z-score),[2],-0.56
same,glycan array binding signal (z-score),[3],-0.195
same,glycan array binding signal (z-score),[4],0.271
same,glycan array binding signal (z-score),[5],0.106
same,glycan array binding signal (z-score),[6],0.349
same,glycan array binding signal (z-score),[7],-0.444
same,glycan array binding signal (z-score),[8],-0.359
same,glycan array binding signal (z-score),[9],0.151
same,glycan array binding signal (z-score),[10],-0.588
same,glycan array binding signal (z-score),Gal(b1-4)GlcNAc6P,-0.563
same,glycan array binding signal (z-score),Gal(b1-4)GlcNAc,0.167
same,glycan array binding signal (z-score),Gal(b1-4)Glc,-0.463
same,glycan array binding signal (z-score),Gal(b1-6)Gal,-0.336
same,glycan array binding signal (z-score),Gal3S(b1-3)GalNAc,-0.706
same,glycan array binding signal (z-score),Gal3S(b1-3)GlcNAc,-0.429
same,glycan array binding signal (z-score),[11],0.172
same,glycan array binding signal (z-score),Gal3S(b1-4)Glc6S,-0.434
same,glycan array binding signal (z-score),Gal3S(b1-4)GlcNAc,-0.221
same,glycan array binding signal (z-score),Gal3S(b1-4)Glc,0.469
same,glycan array binding signal (z-score),[12],0.752
same,glycan array binding signal (z-score),[13],0.381
same,glycan array binding signal (z-score),[14],0.454
same,glycan array binding signal (z-score),Gal3S4S(b1-4)GlcNAc,-0.614
same,glycan array binding signal (z-score),Gal3S6S(b1-4)GlcNAc6S,-0.392
same,glycan array binding signal (z-score),Gal3S6S(b1-4)GlcNAc,-0.572
same,glycan array binding signal (z-score),Gal4S(b1-4)GlcNAc,-1.03
same,glycan array binding signal (z-score),Gal4S6S(b1-4)GlcNAc,-0.626
same,glycan array binding signal (z-score),Gal6P(b1-4)GlcNAc,-0.372
same,glycan array binding signal (z-score),Gal6S(b1-3)GlcNAc6S,-0.109
same,glycan array binding signal (z-score),Gal6S(b1-3)GlcNAc,-0.664
same,glycan array binding signal (z-score),Gal6S(b1-4)Glc6S,-0.489

# As a short view, part of the list above:
substance,measurement,setting,value
MpAFP RI GFP (Marinomonas primoryensis),glycan array binding signal (z-score),Gal4S6S(b1-4)GlcNAc,-0.626
same,glycan array binding signal (z-score),Gal6P(b1-4)GlcNAc,-0.372
